Positions count from the first letter of the chain named. No constants are given. Whether binding was seen depends on the method and setting. Some results given as binding are weak or reduced against the parent protein; the word gives no strength.
T1: ITGA2-His (UniProt P17301 30-1132, limits assumed)
T1 construct: Coated on the ELISA plate at 2 ug/mL; whole entry P17301 is named; also called ITGA2 protein; not shown: His tag
T1 sequence (looked up): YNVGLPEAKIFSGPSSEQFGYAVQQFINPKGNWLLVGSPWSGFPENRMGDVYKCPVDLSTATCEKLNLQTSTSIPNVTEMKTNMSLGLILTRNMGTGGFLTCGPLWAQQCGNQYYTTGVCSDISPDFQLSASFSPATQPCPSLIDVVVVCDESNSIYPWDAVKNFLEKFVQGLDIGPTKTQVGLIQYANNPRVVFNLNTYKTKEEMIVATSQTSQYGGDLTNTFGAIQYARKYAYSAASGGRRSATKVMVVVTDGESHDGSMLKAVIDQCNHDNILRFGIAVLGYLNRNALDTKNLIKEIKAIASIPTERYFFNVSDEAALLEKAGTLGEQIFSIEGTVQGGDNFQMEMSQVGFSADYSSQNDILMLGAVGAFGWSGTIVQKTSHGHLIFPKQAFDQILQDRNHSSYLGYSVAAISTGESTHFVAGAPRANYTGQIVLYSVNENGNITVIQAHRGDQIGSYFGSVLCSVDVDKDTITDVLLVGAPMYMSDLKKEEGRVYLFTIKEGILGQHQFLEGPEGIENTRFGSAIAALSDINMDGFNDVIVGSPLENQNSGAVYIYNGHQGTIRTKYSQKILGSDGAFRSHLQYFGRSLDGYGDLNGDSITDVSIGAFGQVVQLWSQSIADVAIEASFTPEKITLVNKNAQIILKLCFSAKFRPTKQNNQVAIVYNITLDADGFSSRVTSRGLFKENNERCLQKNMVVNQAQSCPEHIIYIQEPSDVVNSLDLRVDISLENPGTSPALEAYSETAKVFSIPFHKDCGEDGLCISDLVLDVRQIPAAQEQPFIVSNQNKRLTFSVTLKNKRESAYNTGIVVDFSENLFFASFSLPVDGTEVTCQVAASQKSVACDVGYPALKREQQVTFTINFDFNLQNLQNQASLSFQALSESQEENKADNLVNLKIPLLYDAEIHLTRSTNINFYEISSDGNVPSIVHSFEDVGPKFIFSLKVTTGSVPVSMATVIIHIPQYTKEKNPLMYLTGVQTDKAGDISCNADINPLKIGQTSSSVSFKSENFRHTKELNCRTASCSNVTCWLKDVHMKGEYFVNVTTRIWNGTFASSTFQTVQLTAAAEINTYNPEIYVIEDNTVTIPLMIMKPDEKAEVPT

B1: Humanized antibody FS002-A103-H4L3 (antibody, human IgG1, kappa, V domains shown)
VH: QVQLVQSGAEVKKPGASVKVSCKASGYTFTDYEMHWVRQAPGQGLEWMGVIDPETGGTTYNQKFQGRVTLTADTSISTAYMELSRLRSDDTAVYYCSRSGYYVSSYESYAMDYWGQGTTVTVSS
VL: EIVMTQSPPTMSMSPGERVTLSCKASENVGTYVSWYQQKPGQAPRLLIYGASTRESGVPARFSGSGSGTDFTLTISSLQPEDFAVYYCQNDYSYPFTFGGGTKLEIKR
notes: Humanized IgG1 kappa
B2: Humanized antibody FS002-A208-H4L4 (antibody, human IgG1, kappa, V domains shown)
VH: B1 VH with M34I, M48I, V50A, T59N, S105N
VL: DIQMTQSPSSLSASVGDRVTITCRASQNVGTNVAWYQQKPEKAPKSLIYSASYRFSGVPSRFSGSGSGTDFTLTISSLQPEDFATYYCQQYNIYPLSFGGGTKLELKR
notes: Humanized IgG1 kappa
B3: Humanized antibody FS002-A153-H5L5 (antibody, human IgG1, kappa, V domains shown)
VH: B1 VH with V50T, N61A, L70M, S97A
VL: EIVMTQSPPTLSLSPGERVTMSCRSSQSLLNSGNQKNYLTWYQQKPGQAPRLLIYGASTRESGVPARFSGSGSGTDFTLTISSLQPEDFAVYYCQNDYSYPFTFGGGTKLEIKR
notes: Humanized IgG1 kappa
B4: Humanized antibody FS002-A226-H4L3 (antibody, human IgG1, kappa, V domains shown)
VH: B1 VH with M34I, M48I, V50A, T59N, S105N
VL: DIQITQSPSSMSASVGDRVTITCKASQDIKSYLSWYQQKPGKAPKLLIYDTSNLASGVPSRFSGSGSGTDYTLTISSLQPEDFATYYCQQWSSYPFTFGGGTKLEIKR
notes: Humanized IgG1 kappa
B5: Humanized antibody FS002-A103-H4L4 (antibody, human IgG1, kappa, V domains shown)
VH: B1 VH
VL: B1 VL with M11L, M13L, K24R, V58I
notes: Humanized IgG1 kappa
B6: Humanized antibody FS002-A226-H5L3 (antibody, human IgG1, kappa, V domains shown)
VH: B1 VH with M34I, V50A, T59N, N61A, L70M, S105N
VL: B4 VL
notes: Humanized IgG1 kappa
B7: Humanized antibody FS002-A226-H3L4 (antibody, human IgG1, kappa, V domains shown)
VH: B1 VH with V2L, M34I, M48I, V50A, T59N, Q65N, G66D, S105N
VL: B4 VL with I4L, M11L, K24R, Y71F
notes: Humanized IgG1 kappa
B8: Humanized antibody FS002-A208-H3L4 (antibody, human IgG1, kappa, V domains shown)
VH: B1 VH with M34I, M48I, V50A, T59N, Q65N, G66D, T74K, S105N
VL: B2 VL
notes: Humanized IgG1 kappa
B9: Humanized antibody FS002-A103-H4L2 (antibody, human IgG1, kappa, V domains shown)
VH: B1 VH
VL: B1 VL with P9K, A60D
notes: Humanized IgG1 kappa
B10: Humanized antibody FS002-A208-H5L4 (antibody, human IgG1, kappa, V domains shown)
VH: B1 VH with M34I, V50A, T59N, N61A, L70M, S105N
VL: B2 VL
notes: Humanized IgG1 kappa
B11: Chimeric mouse antibody FS002-A153 (antibody, human IgG1, kappa, V domains shown)
VH: QVQLQQSGAELVRPGASVTLSCKASGYTFTDYEMHWVKQTPVHGLEWIGTIDPETGGTTYNQKFNDKATLTADKSSSTAYMDLRSLTSEDSAVYYCSRSGYYVSSYESYAMDYWGQGTSVTVSS
VL: DIVMTQSPSSLTVTAGEKVTMSCKSSQSLLNSGNQKNYLTWYQQKPGQPPKLLIYGASTRESGVPDRFTGSGSGTDFTLTISSVQAEDLAVYYCQNDYSYPFTFGSGTKLEIKR
notes: Chimeric
B12: Chimeric mouse antibody FS002-A208 (antibody, human IgG1, kappa, V domains shown)
VH: B11 VH with M34I, T50A, T59N, S105N
VL: DIVMTQSQKFMSTSVGDRVSVTCKASQNVGTNVAWYQQKPGQSPKTLIYSASYRFSGVPDRFTGSGSGTDFTLTINNVQSEDLADYFCQQYNIYPLSFGAGTKLELKR
notes: Chimeric
B13: Humanized antibody FS002-A153-H5L2 (antibody, human IgG1, kappa, V domains shown)
VH: B1 VH with V50T, N61A, L70M, S97A
VL: B11 VL with S9D, T12A, T14S, A15L, K18R, S22N, T69S, V84L, L89V, S106G
notes: Humanized IgG1 kappa
B14: Humanized antibody FS002-A153-H5L1 (antibody, human IgG1, kappa, V domains shown)
VH: B1 VH with V50T, N61A, L70M, S97A
VL: B11 VL with S9D, T12A, T14S, A15L, K18R, V84L, L89V, S106G
notes: Humanized IgG1 kappa
B15: Humanized antibody FS002-A153-H4L2 (antibody, human IgG1, kappa, V domains shown)
VH: B1 VH with V50T, N61A
VL: B11 VL with S9D, T12A, T14S, A15L, K18R, S22N, T69S, V84L, L89V, S106G
notes: Humanized IgG1 kappa
B16: Humanized antibody FS002-A153-H5L4 (antibody, human IgG1, kappa, V domains shown)
VH: B1 VH with V50T, N61A, L70M, S97A
VL: B3 VL with E1D, L13V, R24K, A66D
notes: Humanized IgG1 kappa
B17: Humanized antibody FS002-A153-H3L3 (antibody, human IgG1, kappa, V domains shown)
VH: B1 VH with V20L, M48I, V50T
VL: DIVMTQSPDSLAVSLGERATINCKSSQSLLNSGNQKNYLTWYQQKPGQPPKLLIYGASTRESGVPDRFSGSGSGTDFTLTISSLQAEDVAVYYCQNDYSYPFTFGGGTKLEIKR
notes: Humanized IgG1 kappa

target: T1, ITGA2-His; test: ELISA on coated ITGA2-His

Row | binding | Binder
1 | binds | B1
2 | binds | B2
3 | binds | B3
4 | binds | B4
5 | binds | B5
6 | binds | B6
7 | binds | B7
8 | binds | B8
9 | binds | B9
10 | binds | B10
11 | binds | B11
12 | binds | B12
13 | binds | B13
14 | binds | B14
15 | binds | B15
16 | binds | B16
17 | binds | B17
